Test results: PubChem BioAssay AID1347076 (National Center for Advancing Translational Sciences (NCATS), 2019)
Among all 400,000 compounds or so, about 13,000 (3.2%) were called active. Inconclusive results, whose numbers are uncertain, are shown with a selection of clear calls. Calls follow the shape of the dose curve; as a rule, active = well fitted cell-killing curve with a large enough effect; inconclusive = small, poorly fitted or top-dose-only effect, or effect the other way; inactive = flat fitted curve, though single readings scatter. A potency beside an inconclusive call is a rough fit, not a confirmed value.
% is scaled to controls: 0 for no effect and ±100 for the full control effect; potency is read from the fitted curve at half-maximal effect.

Experiment: qHTS assay for MDR1-selective chemotherapeutics: Primary screen using the drug-selected MDR subline cells KB-V1; also: nearly all actives have a fitted effect of over 60% in size
Conditions: KB-V1 MDR cells viability, CellTiter-Glo, 72 h; activity change, negative = cytotoxicity: at 46.1 µM (top of the series)
Method in brief: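 Cells of the MDR subline KB-V1 are plated, dosed with compound at multiple concentrations, and incubated 72 h at 37 degrees C; CellTiter-Glo is then added and luminescence read after 10 min.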
With `CC(Sc1nnc(CC(C)c2ccccc2)n1N)C(N)=O` (centres undefined) the Potency was inconclusive: 14.6 µM [rising, single point].
In the case of `CC(=O)Nc1ccc(Nc2nc(C)c([N+](=O)[O-])c(N(C)c3ccccc3)n2)cc1`, the Potency is reported as inconclusive: 20.6 µM [cytotoxic, single point].
In the case of `O=C(C[n+]1ccncc1)c1cccc2ccccc12`, the Potency is reported as inconclusive: 13 µM [rising, partial curve].
For `Cc1cc(/C=C(\C#N)C(=O)NC2CCCCCC2)c(C)[nH]1`, the Potency was inconclusive: 20.6 µM [cytotoxic, single point].
For `Cc1ccc(NC(=S)NC(=O)c2ccccc2)cc1NC(=S)NC(=O)c1ccccc1`, the Potency was “inactive”.
With `CC(C)(C)c1ccc(OCCNC(=S)Nc2ccccc2)cc1` the Potency was inconclusive: 18.4 µM [cytotoxic, single point].
In the case of `CC(C)c1ccc(CC(C)C2C3=C(CCCC3=O)OC3=C2C(=O)CCC3)cc1` (centres undefined), the Potency is reported as inconclusive: 16.4 µM [cytotoxic, partial curve].
For `Oc1ccccc1Nc1nc(NCc2ccccc2)c2ccccc2n1`, the Potency was active: 20.6 µM.
For `O=S(=O)(c1ccccc1)N(Cc1cccc(F)c1)c1ccccc1`, the Potency was inconclusive: 18.4 µM [cytotoxic, partial curve].
For `OCC[C@H]1C[C@@H](O)[C@H](O)[C@@]2(Cc3ccccc3CO2)O1`, the Potency was “inactive”.
In the case of `Cc1cccc(N2C(=O)CC(Sc3nc(C)c4c(n3)CCCC4)C2=O)c1` (centres undefined), the Potency is reported as active: 16.4 µM.
For `Cc1cccc(C)c1NC(=O)N1CCN(c2nc3ccccc3s2)CC1`, the Potency was inconclusive: 10.3 µM [cytotoxic, partial curve].
In the case of `Cc1ccc(-c2ocnc2C(=O)Nc2ccccc2C(=O)N2CCCC2)cc1`, the Potency is reported as inconclusive: 18.4 µM [cytotoxic, partial curve, poor fit].
For `O=C(COC(=O)c1ccccc1[N+](=O)[O-])NCCCc1ccccc1`, the Potency was “inactive”.
For `Cc1ccc(/C=N/NC(=O)c2cc(-c3ccc(C)o3)[nH]n2)cc1`, the Potency was inconclusive: 29.1 µM [cytotoxic, single point].
For `Cc1cc(C)c2c(n1)sc1c(N3CCN(CCO)CC3)ncnc12`, the Potency was inconclusive: 11.6 µM [cytotoxic, partial curve, poor fit].
With `N#Cc1c(Cl)cccc1Oc1ccc(S(=O)(=O)Nc2ccccc2)cc1` the Potency was inconclusive: 18.4 µM [cytotoxic, single point].
With `O=C(COC(=O)Cc1ccc(Cl)cc1Cl)NCc1ccccc1` the Potency was inconclusive: 16.4 µM [rising, single point].
In the case of `O=C(CCNS(=O)(=O)c1ccccc1)NNC(=O)COc1ccccc1F`, the Potency is reported as inconclusive: 6.51 µM [rising, partial curve].
In the case of `CC(=O)Nc1ccc(NC(=O)CSc2nc(=O)n3cccc(C)c3n2)cc1`, the Potency is reported as inconclusive: 29.1 µM [rising, single point].
For `COc1ccc(S(=O)(=O)N2CCC3(CC2)OCCN3S(=O)(=O)c2cccs2)cc1`, the Potency was active: 8.2 µM.
With `CCc1ccc(/C=N/n2c(COc3ccccc3)n[nH]c2=S)cc1` the Potency was “inactive”.
In the case of `CCCn1c(N2CCN(C(=O)Nc3ccccc3)CC2)nc2ccccc21`, the Potency is reported as inconclusive: 9.2 µM [cytotoxic, partial curve, poor fit].
For `C/C(CC(=O)NC1CCCC1)=N\NC(=O)Cc1csc(N)n1`, the Potency was inconclusive: 29.1 µM [rising, single point].
For `COC(=O)c1[nH]c2cc(OC)c(OC)cc2c1NC(=O)c1cccc(OC)c1`, the Potency was inconclusive: 16.4 µM [cytotoxic, partial curve].
With `CCOc1ccc(CN(C(=O)c2cc3ccccc3oc2=O)C2CC2)cc1` the Potency was inconclusive: 20.6 µM [cytotoxic, single point].
For `N#Cc1ccc(-c2ccccc2)nc1SCCN1CCOCC1`, the Potency was inconclusive: 9.2 µM [cytotoxic, partial curve].
In the case of `O=C(CCC(=O)N(CC(=O)NC1CCCC1)Cc1ccccc1Cl)Nc1nccs1`, the Potency is reported as inconclusive: 0.0326 µM [cytotoxic, full curve].
For `O=C(Cn1c(C(F)(F)F)nc2ccccc21)Nc1ccccc1C(=O)O`, the Potency was inconclusive: 32.6 µM [cytotoxic, single point].
In the case of `CCOc1ccc(NC(=O)CN2C(=O)c3ccccc3C2=O)cc1`, the Potency is reported as inconclusive: 29.1 µM [rising, single point].
In the case of `Cc1ccc(C(=O)C[n+]2cccc3cc(C)ccc32)cc1`, the Potency is reported as “inactive”.
With `COc1cc(CNCCSc2nnnn2C)ccc1OCc1ccccc1` the Potency was inconclusive: 0.82 µM [cytotoxic, full curve, poor fit].
In the case of `O=C(Nc1ccc(Cl)cc1)Nc1ccccc1CC[N+](=O)[O-]`, the Potency is reported as “inactive”.
In the case of `COCCn1c(SCC(=O)Nc2ccc(C(C)=O)cc2)nnc1-c1ccco1`, the Potency is reported as inconclusive: 29.1 µM [cytotoxic, single point].
In the case of `O=C(NN1CCOCC1)c1ccc(Cl)s1`, the Potency is reported as “inactive”.
For `CCCC1CC(C)(c2csc(Nc3ccc(OCC)cc3)n2)OC1=O` (centres undefined), the Potency was inconclusive: 18.4 µM [cytotoxic, single point].
With `CCC1=Nc2cc(C(=O)NC3CCCC3)ccc2Sc2ccc(Cl)cc21` the Potency was active: 2.91 µM.
For `CCn1cc(C(=O)NCCC(=O)NC(C)C)c(=O)c2cc3c(cc21)OCO3`, the Potency was inconclusive: 9.2 µM [rising, partial curve, poor fit].
For `CCCCCCCCN1C(=O)[C@H](CC(=O)N2CCSCC2)C[C@@]2(C(=O)OC)CC(C)(C)CC=C12`, the Potency was inconclusive: 6.51 µM [cytotoxic, partial curve].
In the case of `Cc1ccc(C(=O)n2c3ccccc3c3ccccc32)cc1`, the Potency is reported as active: 8.2 µM.
With `O=C(c1cc(-c2ccc(Cl)c(Cl)c2)on1)N1CCCCCC1` the Potency was inconclusive: 18.4 µM [rising, partial curve, poor fit].
In the case of `C[N+](C)(C)CCN1C(=O)CSC1=O`, the activity change, negative = cytotoxicity is reported as inconclusive: 30%.
In the case of `Cc1nn(C)c(-c2n[nH]c(=S)n2-c2ccccc2)c1Cl`, the Potency is reported as “inactive”.
In the case of `Cn1c(SCC(=O)N2CCc3ccccc32)nnc1-c1ccc(S(=O)(=O)N2CCCC2)cc1`, the Potency is reported as inconclusive: 23.1 µM [rising, single point].
For `O=C(CC(=O)N/N=C/c1ccc(Cl)cc1Cl)NCc1ccccc1`, the Potency was inconclusive: 25.9 µM [rising, single point].
In the case of `CC1CCC(NC(=O)COC(=O)c2cccnc2Cl)CC1` (centres undefined), the Potency is reported as inconclusive: 25.9 µM [rising, partial curve, poor fit].
With `CC(C)COc1cccc(C(=O)Nc2cc(S(=O)(=O)N3CCOCC3)ccc2N2CCCC2)c1` the Potency was active: 18.4 µM.
With `O=C(CCNS(=O)(=O)c1ccccc1C(F)(F)F)N1CCN(C(c2ccccc2)c2ccccc2)CC1` the Potency was inconclusive: 18.4 µM [cytotoxic, partial curve, poor fit].
With `CC(C)(C)OC(=O)N1CCC(CC2CC(c3cccc(Br)c3)=NO2)(C(=O)NCC2CCCCC2)CC1` (centres undefined) the Potency was inconclusive: 13 µM [cytotoxic, single point].
For `COc1ccc(-c2cc(C(F)(F)F)nc(SCC(=O)NCc3ccco3)n2)cc1OC`, the Potency was “inactive”.
In the case of `COc1ccc(CCNC(=O)CN(C)S(=O)(=O)c2ccc(OC)cc2)cc1`, the Potency is reported as inconclusive: 14.6 µM [cytotoxic, partial curve].
With `CCOc1ccc(C(=O)OCC(=O)N2CC(C)OC(C)C2)cc1OCC` (centres undefined) the Potency was “inactive”.
With `Cc1cc(NC(=O)Nc2ccc(C)c(C)c2)no1` the Potency was “inactive”.
For `CC1(C(=O)NS(=O)(=O)c2ccccc2)CCN1C(=O)c1cccc2ccccc12` (centres undefined), the Potency was “inactive”.
In the case of `Cc1cnn(-c2nc(-c3ccccc3)cc(-c3ccccc3)n2)c1`, the Potency is reported as inconclusive: 32.6 µM [cytotoxic, single point].
With `COc1ccc(N2CCN(CCC(=O)c3ccc4ccccc4c3)CC2)cc1` the Potency was inconclusive: 29.1 µM [rising, single point].
With `Nn1cc(-c2ccccc2)nc1SCC(=O)NCC(F)(F)F` the Potency was “inactive”.
With `CCOC(=O)Cc1csc(NC(=O)Nc2ccc(C)cc2)n1` the Potency was “inactive”.
For `COc1ccc(C(=S)N2CCN(c3ccccc3C)CC2)cc1OC`, the Potency was inconclusive: 29.1 µM [cytotoxic, single point].
For `CN1CCC(N(C)C(=O)c2cc(S(=O)(=O)N(C)c3ccccc3)ccc2Cl)CC1`, the Potency was “inactive”.
With `CCc1nc2c(sc3nc4c(cc32)COC(C)(C)C4)c(=O)n1Cc1ccccc1` the Potency was inconclusive: 23.1 µM [cytotoxic, partial curve, poor fit].
For `CCn1c(=O)cc(OCC(=O)NCCCN2CCN(c3cccc(Cl)c3)CC2)c2ccccc21`, the Potency was inconclusive: 23.1 µM [cytotoxic, partial curve, poor fit].
For `O=C(NCc1cccnc1)c1cc(C2CCCN(C(=O)CCCc3ccccc3)C2)on1` (centres undefined), the Potency was inconclusive: 8.2 µM [cytotoxic, partial curve].
For `CC1CCCN(S(=O)(=O)c2ccc(S(=O)(=O)N3CCCN(Cc4ccccc4)C3)cc2)C1` (centres undefined), the Potency was inconclusive: 29.1 µM [cytotoxic, single point].
In the case of `COC(=O)C1(C(=O)OC)C[C@H](c2cccs2)N(Cc2ccccc2OC)[C@@H]1c1ccc(F)cc1`, the Potency is reported as inconclusive: 20.6 µM [cytotoxic, single point].
In the case of `CN1CCN(S(=O)(=O)c2cccc(S(=O)(=O)c3cccc(S(=O)(=O)N4CCN(C)CC4)c3)c2)CC1`, the Potency is reported as inconclusive: 16.4 µM [cytotoxic, single point].
With `CCN(CC)CC(=O)Nc1ccc(-c2ccc(NC(=O)CN(CC)CC)c(OC)c2)cc1OC` the Potency was inconclusive: 0.411 µM [cytotoxic, full curve, poor fit].
For `COc1ccc(Cl)cc1/C=C1/C(=O)ON=C1C`, the Potency was “inactive”.
In the case of `Cc1ccc(-c2cn3cccnc3n2)cc1NC(=O)c1c(-c2ccccc2Cl)noc1C`, the Potency is reported as active: 4.61 µM.
